Results taken from publication PMC12040169 (PLOS Biology, 2025).
The list shows a part of the results.

Each compound was assayed on T1, CTL2-GFP (C. trachomatis L2/434/Bu, GFP-expressing). Conditions: bulk GFP, single well; 28.5 h, 10 µM; inhibitor.
T1 construct: L2/434/Bu, GFP-expressing
Set-up: species or system HeLa; Intracellular C. trachomatis growth in HeLa cells, bulk GFP fluorescence relative to DMSO

Row | Compound | % of control remaining [%]
1 | O=C(c1cc(C2CC2)n[nH]1)N1CCn2cc(C(F)(F)F)nc2C1 [CBK284749] | 119.88
2 | COc1cccc(-c2nccnc2C2CCCN(S(=O)(=O)c3ccc(F)cc3)C2)c1 (stereo not shown) [CBK286138] | 119.27
3 | CCN(CC)C(=O)c1ccsc1NS(=O)(=O)c1cccc2cccnc12 [CBK042317] | 136.766
4 | CC(C)(C)OC(=O)N1CCN(Cc2ncc(-c3ccccc3)o2)CC1 [CBK306281] | 149.703
5 | Cc1cccc(-c2n[nH]/c(=N/C(=O)c3ccccc3F)s2)c1 [CBK287957] | 137.108
6 | OC(CN1CCC(O)(c2ccc3c(c2)OCO3)CC1)c1ccc2c(c1)CCC2 (stereo not shown) [CBK286326] | 130.959
7 | N#CCCCN1CCC(Oc2nccnc2OCc2ccc(Br)cc2F)CC1 [CBK153647] | 106.538
8 | O=C(O)c1cccc(Sc2cc(C(F)(F)F)ccn2)c1 [CBK093590] | 120.116
9 | CCC(=O)Nc1ccc(O)cc1C(=O)O [CBK126818] | 109.248
10 | Cc1cc(NS(=O)(=O)c2ccc(C(C)C)cc2)n[nH]1 [CBK044646] | 101.672
11 | COc1ccc(Oc2cncc(OC3CCN(Cc4ccc(Cl)c(Cl)c4)C3)n2)cc1OC (stereo not shown) [CBK084391] | 80.5118
12 | CCOC(=O)N1CCN(CC(O)COc2cc(C)c(Cl)c(C)c2)CC1 (stereo not shown) [CBK033833C] | 111.9
13 | Cc1cc(NC(=O)CN2CCC(CSc3ccccc3)C2)no1 (stereo not shown) [CBK306136] | 128.176
14 | CCNc1nccnc1-c1ccc(O)cc1 [CBK088589] | 127.701
15 | O=S(=O)(c1cccc2nsnc12)N1CCN(C2CCCCC2)CC1 [CBK268173] | 123.816
16 | COc1ccc(COc2nc3c(c(=O)n(C)c(=O)n3C)n2Cc2ccc(Cl)c(Cl)c2)cc1 [CBK268779] | 112.432
17 | Cc1ccc(NC2=NC3(N=C(N)N2)C(=O)N(C)c2ccccc23)cc1 (stereo not shown) [CBK270157] | 122.298
18 | C[C@@H]1CN(C(=O)c2cncn2C)C[C@H](C)O1 [CBK200370] | 137.31
19 | Cc1nn(C)c(Cl)c1S(=O)(=O)Nc1ccnn1C [CBK062072] | 113.246
20 | S=c1nc[nH]cc1-c1ccc(Br)cc1 [CBK005833] | 113.656
21 | Cc1cc2nc(-c3ccccc3)[nH]c2cc1C [CBK086484] | 145.5
22 | O=C(O)/C=C/c1cccc(-c2cnc3[nH]c(=O)n(C4CC4)c3n2)c1 [CBK065091] | 199.985
23 | COc1cc(OCc2ccccc2)ccc1CN1CCN(Cc2ccc3c(c2)OCO3)CC1 [CBK074768] | 86.1773
24 | O=C(c1ccc2[nH]nnc2c1)N1CCN(S(=O)(=O)Cc2ccccc2)CC1 [CBK295346] | 151.418
25 | O=C(NC[C@H]1C[C@@H]2CC[N@]1C[C@@H]2CN1CCN(c2ccccn2)CC1)Nc1ccccc1 [CBK289114] | 108.685
26 | FC(F)(F)c1cccc(-c2cn(-c3ccsc3)nn2)c1 [CBK112937] | 74.6333
27 | COc1ccc(C(=O)Nc2cnn(CCCC(=O)O)c2)cc1 [CBK270052] | 107.311

Row | Compound | % of control remaining [%]
28 | C/C(=N\N)c1ccc2[nH]c3c(c2c1)CCC/C3=N\N [CBK261812] | 108.978
29 | C[C@@H](Cn1nc2c(cc1=O)CCCC2)NC(=O)c1ccco1 [CBK284559] | 150.709
30 | O=C(Nc1ccc2nc(CN3CCOCC3)[nH]c2c1)C1CCCCC1 [CBK305728] | 127.441
31 | c1ccc2nc3c(nc2c1)sc1nc2ccccc2n13 [CBK268872] | 71.0847
32 | N#CCCOc1nc2ccccc2nc1N1CCCC1 [CBK115763] | 80.6489
33 | O=C(O)COCC(=O)N1C[C@@H]2OCC(=O)N(Cc3ccccc3)[C@@H]2C1 [CBK289652] | 163.704
34 | COc1ccccc1CC(=O)N1C2CCC1CC(O)(c1ccco1)C2 (stereo not shown) [CBK284106] | 119.575
35 | CC(=O)c1ccc(-c2nc(-c3cccc(OC(F)(F)F)c3)cnc2N)cc1 [CBK064105] | 111.67
36 | Cc1ccc(Cl)c(OC(C)C(=O)N2CCN(c3ccccn3)CC2)c1 (stereo not shown) [CBK304650] | 110.855
37 | CCc1ccccc1NC(=O)CN1CCCCC1C(=O)O (stereo not shown) [CBK287179] | 101.204
38 | O=C(Nc1nccs1)c1cc(=O)c2ccccc2o1 [CBK287570] | 136.402
39 | OC1(c2cccnc2)CCCC2CN(Cc3c(F)cccc3F)CC21 (stereo not shown) [CBK284512] | 78.0006
40 | Cc1ccc(-c2noc(C(C)NC(=O)C3(Cn4ccnc4)CC3)n2)cc1 (stereo not shown) [CBK307661] | 88.3271
41 | O=S(=O)(c1ccc2ccccc2c1)N1CCN(C2CCCCCCC2)CC1 [CBK264186G] | 126.647
42 | NC(CCc1nc2ccccc2[nH]1)c1nc2ccccc2[nH]1 (stereo not shown) [CBK269970] | 155.331
43 | O=C(Nc1cccc(C(F)(F)F)c1)N[C@H]1[C@H](O)[C@@H](N2CCCC2)[C@@H]2OC[C@H]1O2 [CBK288828] | 143.809
44 | O=C(NCc1ccccc1)c1c(O)c2ccccc2n(Cc2ccccc2)c1=O [CBK291174] | 114.716
45 | Cn1nc(CN2CCNC(=O)C2c2ccccc2C(F)(F)F)[nH]c1=O (stereo not shown) [CBK306269] | 180.628
46 | Cc1ccc(NC(=O)c2cnc3ccc(C)cn3c2=O)cc1 [CBK287285] | 129.913
47 | CN(C(=O)CN1CCN(c2cc(-c3cc4ccccc4o3)ncn2)CC1)c1ccccc1 [CBK091128] | 203.055
48 | Cc1cc(C)n(C(C)C(=O)NCC2(N(C)C)CCCC2)n1 (stereo not shown) [CBK281713] | 78.9656
49 | Oc1ccc(Nc2ccnc3cc(Cl)ccc23)cc1 [CBK012365C] | 192.398
50 | O=C(COC(=O)C1CCN(S(=O)(=O)c2cccc3cccnc23)CC1)c1cccc([N+](=O)[O-])c1 [CBK264435] | 128.701
51 | COc1ccc(-c2noc(-c3cnccn3)n2)c(OC)c1 [CBK287878] | 131.417
52 | Cn1c(-c2cc(=O)c(C(=O)O)c[nH]2)n[nH]c1=O [CBK012603] | 158.599
53 | CC(C)c1ccc(C(C)NC(=O)c2ccc(=O)n(CC(=O)NC3CCCC3)c2)cc1 (stereo not shown) [CBK286038] | 133.245
54 | c1ccc2oc(SCCCCSc3nc4ccccc4o3)nc2c1 [CBK025465] | 113.364

Retrieved by compound from above (4):
Row | Compound | % of control remaining [%]
42 | NC(CCc1nc2ccccc2[nH]1)c1nc2ccccc2[nH]1 (stereo not shown) [CBK269970] | 155.331
44 | O=C(NCc1ccccc1)c1c(O)c2ccccc2n(Cc2ccccc2)c1=O [CBK291174] | 114.716
54 | c1ccc2oc(SCCCCSc3nc4ccccc4o3)nc2c1 [CBK025465] | 113.364
38 | O=C(Nc1nccs1)c1cc(=O)c2ccccc2o1 [CBK287570] | 136.402

Later entries.

Row | Compound | % of control remaining [%]
55 | Cc1ccc(S(=O)(=O)N2CCOCC2)cc1C(=O)NCCc1ccccc1 [CBK269658] | 107.706
56 | CC1CCN(S(=O)(=O)c2ccc(Cl)c(C(=O)Nc3ccc(C(=O)O)cc3)c2)CC1 [CBK265170] | 115.129
57 | CC(C(=O)NCCc1ccncc1)n1cnc2ccccc21 (stereo not shown) [CBK282202] | 132.273
58 | Cc1ccc(S(=O)(=O)OCCOS(=O)(=O)c2ccc(C)cc2)cc1 [CBK260986] | 118.645
59 | Cc1ccc(C)c(NS(=O)(=O)c2ccc(NC(=O)c3ccc(CN4CCOCC4)cc3)cc2)c1 [CBK264780] | 101.035
60 | O=C(NCCCc1ccccn1)c1cccc(N2CCCC2=O)c1 [CBK282643] | 113.623
61 | CC(C)c1ccc(S(=O)(=O)n2ccn(-c3cccc(C(F)(F)F)c3)c2=O)cc1 [CBK106587] | 135.992
62 | O=C(O)CC1C(=O)NCCN1CC(c1ccccc1)c1ccccc1 (stereo not shown) [CBK286539] | 118.834
63 | c1cncc(CN2CCCN(c3nccc(OCC4COc5ccccc5O4)n3)CC2)c1 (stereo not shown) [CBK083969] | 89.0295
64 | Cc1cc(C)c(C)c(S(=O)(=O)Nc2cc(S(=O)(=O)N3CCOCC3)ccc2F)c1C [CBK269698] | 152.197
65 | O=C(COc1ccccc1Cl)Nc1cccc(NC(=O)c2cccc(Cl)c2)c1 [CBK263651] | 97.3154
66 | Cc1nc2ncccn2c1-c1csc(Nc2ccc(C(=O)O)cc2)n1 [CBK263284] | 91.1768
67 | O=C(c1ccncc1)N1CCc2ccccc21 [CBK200280] | 104.699
68 | O=C(Nc1ccc2[nH]ccc2c1)N1CCc2ccccc2C1 [CBK155289] | 110.004
69 | CCCNCc1ccc(-c2nnn(CC(=O)NCc3ccc(C4CCC4)cc3)n2)cc1 [CBK167525C] | 122.362
70 | O=c1n(CC2CCCCC2)c2ccccc2n1S(=O)(=O)c1cccc(Cl)c1 [CBK106521] | 145.624
71 | Cc1nnc(CN2CCOC(c3nc(C(C)(C)C)cs3)C2)n1C (stereo not shown) [CBK305772] | 183.514
72 | O=C(CSCc1c(Cl)cccc1Cl)Nc1ccc(S(=O)(=O)N2CCOCC2)cc1 [CBK266276] | 118.516
73 | CC1CCC(C(C)C)C(OCC(O)CN2CCN(C)CC2)C1 (stereo not shown) [CBK278213C] | 113.322
74 | CC(C)Cc1nc(C(=O)N2CCC3(C2)NC(=O)NC3=O)cs1 (stereo not shown) [CBK305534] | 128.85
75 | Cc1ccc(NC(=O)c2ccccc2NS(=O)(=O)c2ccc(C(C)C)cc2)cc1 [CBK113800] | 119.981
76 | O=C1O[C@@H](CO)CN1c1ccc(N(Cc2ccccc2)Cc2ccccc2)c(F)c1 [CBK016873] | 78.5422
77 | CC1CCc2c(C(=O)Nc3ncc(Cc4ccccc4)s3)csc2C1 (stereo not shown) [CBK300531] | 109.488
78 | COc1ccc(CCNC(=S)n2cc(C)cn2)cc1OC [CBK267001] | 165.666
79 | CC(C)[C@@H](CO)Nc1nccnc1-c1ccoc1 [CBK036648] | 195.805
